Laboratory results from the supplement of paper PMC12764529.
± gives the half width of the 95% confidence interval. For many entries, trypsin and chymotrypsin gave values far apart.

How the values were obtained:
[1] = folding stability dG unfold (combined trypsin and chymotrypsin); higher = more stable
Method in brief: (§1)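 Unfolding free energy was derived, per protease or combined, against a sequence-predicted unfolded-state K50 and a shared folded-state K50, starting from K50 inferred by Bayesian fitting of sequencing counts. Digestion with trypsin and chymotrypsin was carried out on designed mini-proteins under 80 residues without cysteine in a PA-tagged cDNA display construct. Only designs with AlphaFold2 dimer inter-PAE above 15 were kept.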

[2] = folding stability dG unfold from trypsin proteolysis; higher = more stable
Method in brief: as §1

[3] = folding stability dG unfold from chymotrypsin proteolysis; higher = more stable
Method in brief: as §1

Row | Sequence | folding stability dG unfold [1] [kcal/mol] | folding stability dG unfold [2] [kcal/mol] | folding stability dG unfold [3] [kcal/mol]
1 | SAGGMLVVKIEVENKDGKKETIEIDLSKLSEEEIKKLLKELEKKGYKVKVEIKPALSEEELKKLKEKKSAGG [r13_251_TrROS_Hall] | 2.25 ± 0.4 | 0.193 ± 0.17 | 2.78 ± 0.099
2 | SAGGETVTIEIKLEDGKTIRITYTKNPETGEYTVTVTIVDKETKEVVKTYTFTSLEEAEKAIKEGLLSAGGS [r8_450_TrROS_Hall] | 5.66 ± 0.16 | 3.39 ± 0.13 | 5.68 ± 0.091
3 | SAGMISPKEAIELLKEGKEIHIYAPNPEDVEKFYNALRKELGLPKEEVEKIFEKVKIENIPADDPRFKKSAG [r5_368_TrMRF] | 2.69 ± 0.15 | 0.287 ± 0.12 | 3.21 ± 0.035
4 | SAGGSAGGSAMTVESEVSEIPNGGKTVTITVTESGKKIPVTFPDSPSNPVPKEELVAKVIKESAGGSAGGSA [r18_111_JUSTAS] | 1.07 ± 0.055 | -1.27 ± 0.16 | 1.58 ± 0.029
5 | SAGGSAGGSAEVIDKPFDEVLEELGVSPENVEWEPLEDGGWIARLPNGKPVLLVVPPELAASAGGSAGGSAG [r3_477_TrMRF] | 1 ± 0.059 | -1.16 ± 0.34 | 1.34 ± 0.026
6 | SAGGWWYRIKIEITFPNGKTHTYPIPGIRSVAEIKNHLREQGIDNPPNVPIEVKEIEPFPPVPPEDMKSAGG [r13_493_TrROS] | 2.62 ± 0.4 | 0.969 ± 0.096 | 3.24 ± 0.065
7 | SAGGSAGGSAGGSMKIEIVTNDPKKAEEIKEKLEKEGYPKKKNPINIEVKEISEEELLKSAGGSAGGSAGGS [r4_281_JUSTAS] | 0.533 ± 0.16 | -0.113 ± 0.085 | 0.628 ± 0.053
8 | ETITIELPEELRGLSAEEIKALLREKLNLPGVEVTVEYDPETRTVTVTVRVAPPPPKVEVTEEELKKLEEES [r1_131_TrROS_Hall] | 3.97 ± 0.28 | 2.44 ± 0.095 | 4.78 ± 0.62
9 | SAGGSAAKVVSVEYNPETNLYVVRVTFDGPEKETVEIVFESLEDLEAALAALPDDVTSVEIRRLKPSAGGSA [r15_589_TrROS_Hall] | 3.06 ± 0.068 | 1.23 ± 0.023 | 3.57 ± 0.053
10 | MEKVLILAKIKLKGPDGEEAEIDFAVEISPEEATPELLKKVREEAEEIAEALKEKGYEVELEVEVVKLGEES [r1_221_TrMRF] | 3.25 ± 0.65 | 3.62 ± 0.48 | 2.88 ± 0.24
11 | SAGGSAMTKTIVDPNLSIEEAKKKLEELLKEEGKEPVKVTTEEDPETGTYTITVELPNGEKVVFRNSAGGSA [r15_958_JUSTAS] | 3.55 ± 0.12 | 2.02 ± 0.14 | 4.03 ± 0.067
12 | SKTYLVKVTIEYGGKTIEIEVEVETLEEALAAVRAALPPEERAQLPPDAKVTVEVYELPEVDEETGELLESA [r9_111_TrROS_Hall] | 3.84 ± 0.059 | 2.83 ± 0.07 | 4.2 ± 0.048
13 | SAGTITADDITEIEMQWDPGNGYVQIEIEFPNGYTVNAWMPNDKIEIEVWYPNGKKVEIEFEIKPPGASAGG [r19_121_TrROS] | 2.39 ± 0.38 | 1.72 ± 0.22 | 2.74 ± 0.18
14 | SAGNKIEIEPVNYEPMPNGYYRVTARVTIENPNNKKPWDIDVEAYYPMDPNGQPMNVDEIAKEAIKKIFSAG [r5_604_TrROS] | 1.07 ± 0.24 | 0.624 ± 0.098 | 1.36 ± 0.11
15 | SAGGSGTESKEYPDSKVTVTPVPLPLGDGAPVLRVTTVPKLPNGEPVTTVTLVDPDSDVVVTEETLSAGGSA [r2_484_JUSTAS] | 0.598 ± 0.044 | -0.0208 ± 0.028 | 0.925 ± 0.012
16 | SAGGMVEITATVGSPDPSLTDEEIAERILKELGLDPEIVEVTFLERRLVPDAAGRVRVVVEMKFLVPEKSAG [r5_528_JUSTAS] | 4.73 ± 0.19 | 4.77 ± 0.21 | 4.26 ± 0.16
17 | SAGMIEINNVTPNYVMIKIWNPDNGKKWEIPIQYERDNGKPYSKDKALEEIKDIAKEFYPDFDIEVEPVSAG [r5_293_TrROS] | 0.41 ± 0.25 | 0.0269 ± 0.15 | 0.727 ± 0.14
18 | SAGGSAKKKKKKPVVKEVTLVIKIKVKSEEEAKKLAEELKKLFPNAKVELVEKKKDGYYVIKITFKSAGGSA [r15_387_TrROS_Hall] | 3.19 ± 0.3 | 1.59 ± 0.083 | 3.6 ± 0.15
19 | SAGGSAGGSAGGRRLRIRFLDPNGRVLAERELDLEVVVPPPPPRLWFRDPRTGRWYELSGSAGGSAGGSAGG [r17_348_TrMRF] | 2.4 ± 0.13 | 0.701 ± 0.095 | 3.41 ± 0.034
20 | SAGGSAGGSAGAETETRTETRVERPAPTVTVTLTFTLPDGLTVRLTFDAATQELTLEVYPSAGGSAGGSAGG [r17_369_TrROS_Hall] | 3.88 ± 0.13 | 2.11 ± 0.093 | 4.35 ± 0.07
21 | SAGGSAGGSNWYQFTIPFPIPPDEPVEIKLPDGWEIHEIPPNSGRITIYMPMNNMDAIKEAIGSAGGSAGGS [r12_476_TrROS] | 1.19 ± 0.056 | 1.214 ± 0.012 | 1.01 ± 0.045

Row | Sequence | folding stability dG unfold [1] [kcal/mol] | folding stability dG unfold [2] [kcal/mol] | folding stability dG unfold [3] [kcal/mol]
22 | SAGGIDLSKLPKNSIVVITKVKVYPTKVGEPDGEGEGYVEVELRVFRNIPPTGKILSSPLPVKFKIASAGGS [r8_486_TrMRF] | 1.17 ± 0.12 | 1.19 ± 0.04 | 0.987 ± 0.25
23 | SAGGDILEKAIDHAQRNGEPAEIYLPLPDPNGEPWVIRIEVRIKPDPDDPNKYKIEINIEIVPPKDISAGGS [r16_323_TrROS] | 3.95 ± 0.2 | 2.16 ± 0.086 | 4.49 ± 0.17
24 | SAMTPEFFETIKEASREGDIAAVLEAAEAIKTEFPDTGLTVDVVIEPREDDRFVIEVRVDYPPNLEGLASAG [r14_690_TrMRF] | -0.0704 ± 0.18 | -0.142 ± 0.039 | -0.212 ± 0.11
25 | SATITVEYDKETGTITVTVKVKDKETGEELSAEEIAKKLKELFPEAEIVKIEKLPDGTVKITIKLKKEKKSA [r9_87_TrROS_Hall] | 2.69 ± 0.18 | 0.826 ± 0.12 | 3.14 ± 0.14
26 | SAGGSAGGSAPTLTLELEVPTPEEAAALAEALREAGYEVEVEVRYDEATNRLTVRITVRPKPSAGGSAGGSA [r18_455_TrROS_Hall] | 2.4 ± 0.048 | 0.0883 ± 0.14 | 2.67 ± 0.044
27 | SAGGSAGGSAGDLPPGQILMFQIEIEMTHEVYNPDNGKKVHEHDVKIPIWIIFVLPPDMPSAGGSAGGSAGG [r11_970_TrROS] | 4.4 ± 0.15 | 2.72 ± 0.15 | 4.83 ± 0.15
28 | SAGGSAGGSAGGSWILIPIPNGYLFIIRITFVWPTPNGKPYEPEIDIHIMPAEDLEDFISAGGSAGGSAGGS [r4_238_TrROS] | 5.01 ± 0.35 | 3.48 ± 0.23 | 5.52 ± 0.24
29 | SAGGSAGGSAGKPKYKIKKIEIKKNKDGTYTITAEIELENGKTLKLTITVKPGEKIEIKPSAGGSAGGSAGG [r17_316_TrROS_Hall] | 4.68 ± 0.17 | 2.4 ± 0.058 | 4.86 ± 0.084
30 | SAGGSYTMGMKFEFHFFTLGRSPDGQWSMGMYPIEIEIEVPVPPPPPPPPITPEEAAEKNGNPGDVSAGGSA [r2_340_TrROS] | 3.71 ± 0.37 | 1.71 ± 0.13 | 4.44 ± 0.24
31 | SAGMKVTVLKTENLGDTTVTYYKIEKPDGGKDLLGVATYDPATGTTTVTIYDPSNGKKVSEPVIPVEPASAG [r5_440_JUSTAS] | 2.28 ± 0.053 | 0.61 ± 0.032 | 2.7 ± 0.044
32 | SAGGAEELARALRDAGYTVTVERLADGTLKLTITLPPPPPVRVERAPPPPRTTTTKTTTTTTTTTTTSAGGS [r16_613_TrROS_Hall] | 1.91 ± 0.08 | -0.473 ± 0.15 | 2.48 ± 0.047
33 | SMTISIPGGITITIEPKPNSYTLTVSFPDGSTVTRPVDPSDLTSAIKAVIREALRRADPNITEEEIEKLLSA [r9_634_JUSTAS] | > 6 | 4.39 ± 0.1 | 6.07 ± 0.17
34 | SMEDMIERAIDEILEARENGGPTVTIEMRFPGYMFRIEIDPEGWKIEEIEWEPFPDDMPYIRYTIKLPPDSA [r9_308_TrROS] | 4.63 ± 0.44 | 2.49 ± 0.15 | 4.95 ± 0.35
35 | SAGGKKPKVKITAKVTKVTVTKNEDGTYTVTVYVNGKPVATFTFSKEELDKLLKSLKPGDTVEITLESAGGS [r8_41_TrROS_Hall] | 4.53 ± 0.21 | 1.58 ± 0.058 | 4.76 ± 0.14
36 | SAGGKTISIEFYMPPGEPPPSIEEIAKELFPGYKDIKIKNIEIEDVEPDPDNGMKYVRVSFTIEVEPPSAGG [r13_10_TrROS] | 3.39 ± 0.25 | 3.25 ± 0.27 | 3.42 ± 0.23
37 | SAGGPDIKIKWKIEVNPDNGMIWLTMEIEVPNPNGDFYKVRADIYIPIVNPDDGKFPIFIMLEVEPVPSAGG [r13_715_TrROS] | 4.76 ± 0.2 | 3.36 ± 0.3 | 4.74 ± 0.25
38 | SAGGSAGGSAGKVTLTIPFTNEDGTKYIAEFTFDELEVEEDVEIKIVSLGENFDLVLKPESAGGSAGGSAGG [r11_733_TrMRF] | 1.63 ± 0.1 | 1.47 ± 0.069 | 1.67 ± 0.041
39 | SGMSMAKDAKPIYIEYRDPNGKSYRVTEVKVNEDGTLTITIEYPDSIKTYTLPPNANYPLSSSLILSTVESA [r9_993_JUSTAS] | 1.45 ± 0.14 | 1.4 ± 0.076 | 1.43 ± 0.13
40 | SAGGSAGGSAGVVVKKPGTDVVYEITEEPGSYKVTITDPKTGTTKEFTVSPEVSIESLLLSAGGSAGGSAGG [r11_772_JUSTAS] | 1.15 ± 0.14 | 1.22 ± 0.092 | 0.757 ± 0.13
41 | SAGGSAGGSAGWFLIIKFDIGLEPEYDENGKPKGMKLEVRVEIEPIPPPPDPGDPEYKENSAGGSAGGSAGG [r11_131_TrROS] | 4.36 ± 0.19 | 2.43 ± 0.14 | 4.8 ± 0.26
42 | SAGGSAGGMTLEFTDYTPEEMEKIKKEVEEFAKKNNIKVEIKTEKLPNGKTKMTITITPNKKKKSAGGSAGG [r6_907_JUSTAS] | 3.29 ± 0.071 | 0.887 ± 0.034 | 3.79 ± 0.083

Quoted at random: 2 entries already listed
Row | Sequence | folding stability dG unfold [1] [kcal/mol] | folding stability dG unfold [2] [kcal/mol] | folding stability dG unfold [3] [kcal/mol]
19 | SAGGSAGGSAGGRRLRIRFLDPNGRVLAERELDLEVVVPPPPPRLWFRDPRTGRWYELSGSAGGSAGGSAGG [r17_348_TrMRF] | 2.4 ± 0.13 | 0.701 ± 0.095 | 3.41 ± 0.034
27 | SAGGSAGGSAGDLPPGQILMFQIEIEMTHEVYNPDNGKKVHEHDVKIPIWIIFVLPPDMPSAGGSAGGSAGG [r11_970_TrROS] | 4.4 ± 0.15 | 2.72 ± 0.15 | 4.83 ± 0.15
